Molecular target: T1, GFP-mini-Gs (human)
T1 construct: mini-Gs as in m7 (GαGTPase domain of Gαs, human, 3 deletions and 7 mutations); GFP joined to the N-terminus of the mini-G protein with a GGGGS linker; 54 kDa; also called GFP-mini-Gs fusion protein; source: E. coli, purified; not shown: GFP, N-terminal, kept
Assay: fluorescent saturation binding assay (FSBA); DDM-solubilised His-tagged β1AR or A2AR immobilised on Ni2+-coated 96-well plate; GFP-mini-Gs 0 to 2.8 μM, 90 min on ice; specific binding = agonist minus inverse agonist condition; apparent KD, one-site fit
Conditions: one partner purified

B1: truncated wild type turkey β1-adrenergic receptor (construct βAR6) (receptor)
chain: ELLSQQWEAGMSLLMALVVLLIVAGNVLVIAAIGRTQRLQTLTNLFITSLACADLVMGLLVVPFGATLVVRGTWLWGSFLCECWTSLDVLCVTASIETLCVIAIDRYLAITSPFRYQSLMTRARAKVIICTVWAISALVSFLPIMMHWWRDEDPQALKCYQDPGCCDFVTNRAYAIASSIISFYIPLLIMIFVYLRVYREAKEQIRKIDRCEGRFYGSQEQPQPPPLPQHQPILGNGRASKRKTSRVMAMREHKALKTLGIIMGVFTLCWLPFFLVNIVNVFNRDLVPDWLFVFFNWLGYANSAFNPIIYCRSPDFRKAFKRLLCFPRKADRRLHAGGQPAPLPGGFISTLGSPEHSPGGTWSDCNGGTRGGSESSLEERHSKTSRSESKM
modifications: C-terminal His6 left out. Limits are not printed (ref. 27); 34-424 is taken by convention from the known truncated turkey beta1AR constructs of this group. Related 34-424 constructs may carry C116L …
- Kd: 0.2 µM

Source: article PMC5398546, “Mini-G proteins: Novel tools for studying GPCRs in their active conformation” (PLoS ONE, 2017)
